# Measurements from BindingDB's records for doi:10.1128/AAC.00819-20 (Institut Pasteur Korea, 2020).
# Target: Replicase polyprotein 1ab (Severe acute respiratory syndrome coronavirus 2, UniProt P0DTD1)
compound,measurement,value
CC(C)(C)c1ccc(C(=O)CCCN2CCC(OC(c3ccccc3)c3ccccc3)CC2)cc1 [Bactil],IC50,920 nM
